Data on five substances can be found in publication PMC4525285.

Protein sequences, listed by entry. Tags and fused reporters are not part of them.
UniProt Q6NRM6: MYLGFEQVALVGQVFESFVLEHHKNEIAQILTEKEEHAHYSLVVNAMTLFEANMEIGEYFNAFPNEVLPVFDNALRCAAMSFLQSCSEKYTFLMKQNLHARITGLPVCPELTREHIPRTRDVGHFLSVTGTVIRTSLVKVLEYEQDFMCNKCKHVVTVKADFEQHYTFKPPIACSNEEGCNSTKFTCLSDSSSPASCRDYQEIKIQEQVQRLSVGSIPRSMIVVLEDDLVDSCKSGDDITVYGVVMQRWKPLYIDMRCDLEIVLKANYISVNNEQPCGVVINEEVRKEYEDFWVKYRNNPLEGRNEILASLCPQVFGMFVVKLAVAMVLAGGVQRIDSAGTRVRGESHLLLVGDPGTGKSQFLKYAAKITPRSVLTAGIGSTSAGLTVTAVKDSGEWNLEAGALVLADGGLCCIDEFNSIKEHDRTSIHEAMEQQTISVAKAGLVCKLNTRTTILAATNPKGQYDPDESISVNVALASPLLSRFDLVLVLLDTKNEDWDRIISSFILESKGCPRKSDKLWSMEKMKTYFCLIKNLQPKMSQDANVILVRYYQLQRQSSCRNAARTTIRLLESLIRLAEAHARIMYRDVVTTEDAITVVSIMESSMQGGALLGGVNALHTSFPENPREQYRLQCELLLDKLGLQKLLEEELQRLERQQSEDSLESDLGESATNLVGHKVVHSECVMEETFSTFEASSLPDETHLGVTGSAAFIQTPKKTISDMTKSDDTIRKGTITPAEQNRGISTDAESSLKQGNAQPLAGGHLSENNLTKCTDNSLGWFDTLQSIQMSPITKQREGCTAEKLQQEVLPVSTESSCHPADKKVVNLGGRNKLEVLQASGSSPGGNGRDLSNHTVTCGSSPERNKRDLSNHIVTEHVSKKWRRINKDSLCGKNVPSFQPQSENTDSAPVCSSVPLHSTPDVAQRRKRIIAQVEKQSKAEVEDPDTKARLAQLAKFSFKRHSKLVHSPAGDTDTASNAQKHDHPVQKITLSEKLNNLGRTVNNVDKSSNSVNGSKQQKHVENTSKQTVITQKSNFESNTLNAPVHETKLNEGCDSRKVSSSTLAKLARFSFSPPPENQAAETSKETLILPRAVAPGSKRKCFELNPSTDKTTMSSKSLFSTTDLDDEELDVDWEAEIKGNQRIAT
UniProt Q92878: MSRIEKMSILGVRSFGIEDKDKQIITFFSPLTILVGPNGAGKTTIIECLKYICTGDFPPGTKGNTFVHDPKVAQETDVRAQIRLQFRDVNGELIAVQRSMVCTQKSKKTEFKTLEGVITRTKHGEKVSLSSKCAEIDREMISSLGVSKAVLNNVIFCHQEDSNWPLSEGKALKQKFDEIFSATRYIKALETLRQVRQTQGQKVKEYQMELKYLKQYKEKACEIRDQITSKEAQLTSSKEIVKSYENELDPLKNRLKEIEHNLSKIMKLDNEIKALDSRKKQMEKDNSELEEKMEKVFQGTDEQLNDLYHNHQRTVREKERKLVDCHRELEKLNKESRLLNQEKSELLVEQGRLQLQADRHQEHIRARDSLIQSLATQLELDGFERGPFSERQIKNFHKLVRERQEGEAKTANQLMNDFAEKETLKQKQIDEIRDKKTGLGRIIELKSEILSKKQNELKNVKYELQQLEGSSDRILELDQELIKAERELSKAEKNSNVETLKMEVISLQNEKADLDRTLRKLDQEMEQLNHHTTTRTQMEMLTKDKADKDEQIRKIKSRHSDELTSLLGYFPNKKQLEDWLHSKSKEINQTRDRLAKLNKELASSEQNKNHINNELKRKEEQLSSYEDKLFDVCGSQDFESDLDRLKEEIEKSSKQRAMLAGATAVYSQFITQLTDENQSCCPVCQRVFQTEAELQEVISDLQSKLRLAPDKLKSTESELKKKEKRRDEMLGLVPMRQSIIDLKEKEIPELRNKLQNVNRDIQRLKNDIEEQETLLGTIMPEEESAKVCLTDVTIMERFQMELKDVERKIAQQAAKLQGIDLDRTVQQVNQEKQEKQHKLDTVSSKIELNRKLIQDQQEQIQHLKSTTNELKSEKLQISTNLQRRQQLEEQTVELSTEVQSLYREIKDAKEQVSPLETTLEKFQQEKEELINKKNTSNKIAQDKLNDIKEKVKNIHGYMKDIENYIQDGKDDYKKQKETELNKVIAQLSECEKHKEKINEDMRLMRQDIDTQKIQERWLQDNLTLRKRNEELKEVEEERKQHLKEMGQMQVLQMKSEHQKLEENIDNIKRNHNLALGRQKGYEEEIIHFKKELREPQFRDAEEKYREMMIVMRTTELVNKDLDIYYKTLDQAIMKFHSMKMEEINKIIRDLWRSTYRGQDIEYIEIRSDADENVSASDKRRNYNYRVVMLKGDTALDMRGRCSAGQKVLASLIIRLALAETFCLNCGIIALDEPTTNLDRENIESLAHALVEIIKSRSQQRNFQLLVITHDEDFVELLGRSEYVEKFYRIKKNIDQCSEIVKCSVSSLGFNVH
UniProt Q9NXL9: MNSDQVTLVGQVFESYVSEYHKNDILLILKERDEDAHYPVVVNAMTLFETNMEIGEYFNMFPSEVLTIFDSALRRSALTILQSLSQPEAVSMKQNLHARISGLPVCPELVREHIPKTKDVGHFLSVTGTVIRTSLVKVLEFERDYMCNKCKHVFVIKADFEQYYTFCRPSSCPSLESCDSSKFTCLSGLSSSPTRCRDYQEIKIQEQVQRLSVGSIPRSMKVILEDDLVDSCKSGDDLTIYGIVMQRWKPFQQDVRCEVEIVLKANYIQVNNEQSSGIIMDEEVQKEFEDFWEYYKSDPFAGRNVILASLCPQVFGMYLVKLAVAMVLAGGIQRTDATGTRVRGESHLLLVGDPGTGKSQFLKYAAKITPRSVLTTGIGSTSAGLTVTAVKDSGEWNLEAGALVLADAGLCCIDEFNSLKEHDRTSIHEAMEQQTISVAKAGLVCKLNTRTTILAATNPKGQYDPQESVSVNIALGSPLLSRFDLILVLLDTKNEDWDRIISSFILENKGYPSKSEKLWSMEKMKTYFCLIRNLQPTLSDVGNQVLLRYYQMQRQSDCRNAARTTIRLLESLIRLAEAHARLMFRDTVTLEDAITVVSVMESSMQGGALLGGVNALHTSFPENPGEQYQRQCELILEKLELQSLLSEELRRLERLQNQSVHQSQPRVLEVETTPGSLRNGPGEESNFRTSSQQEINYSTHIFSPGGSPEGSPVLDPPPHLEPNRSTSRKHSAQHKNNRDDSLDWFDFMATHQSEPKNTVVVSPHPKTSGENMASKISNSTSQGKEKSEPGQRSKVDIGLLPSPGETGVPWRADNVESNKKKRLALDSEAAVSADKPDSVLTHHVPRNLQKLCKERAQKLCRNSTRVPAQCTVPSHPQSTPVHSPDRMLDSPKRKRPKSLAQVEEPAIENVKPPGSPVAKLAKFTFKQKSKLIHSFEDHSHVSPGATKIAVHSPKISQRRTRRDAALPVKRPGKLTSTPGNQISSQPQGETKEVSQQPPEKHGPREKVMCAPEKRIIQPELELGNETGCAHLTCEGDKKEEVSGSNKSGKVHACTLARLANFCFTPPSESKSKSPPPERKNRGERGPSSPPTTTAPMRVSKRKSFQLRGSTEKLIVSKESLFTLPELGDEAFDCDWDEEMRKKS
UniProt Q5F310: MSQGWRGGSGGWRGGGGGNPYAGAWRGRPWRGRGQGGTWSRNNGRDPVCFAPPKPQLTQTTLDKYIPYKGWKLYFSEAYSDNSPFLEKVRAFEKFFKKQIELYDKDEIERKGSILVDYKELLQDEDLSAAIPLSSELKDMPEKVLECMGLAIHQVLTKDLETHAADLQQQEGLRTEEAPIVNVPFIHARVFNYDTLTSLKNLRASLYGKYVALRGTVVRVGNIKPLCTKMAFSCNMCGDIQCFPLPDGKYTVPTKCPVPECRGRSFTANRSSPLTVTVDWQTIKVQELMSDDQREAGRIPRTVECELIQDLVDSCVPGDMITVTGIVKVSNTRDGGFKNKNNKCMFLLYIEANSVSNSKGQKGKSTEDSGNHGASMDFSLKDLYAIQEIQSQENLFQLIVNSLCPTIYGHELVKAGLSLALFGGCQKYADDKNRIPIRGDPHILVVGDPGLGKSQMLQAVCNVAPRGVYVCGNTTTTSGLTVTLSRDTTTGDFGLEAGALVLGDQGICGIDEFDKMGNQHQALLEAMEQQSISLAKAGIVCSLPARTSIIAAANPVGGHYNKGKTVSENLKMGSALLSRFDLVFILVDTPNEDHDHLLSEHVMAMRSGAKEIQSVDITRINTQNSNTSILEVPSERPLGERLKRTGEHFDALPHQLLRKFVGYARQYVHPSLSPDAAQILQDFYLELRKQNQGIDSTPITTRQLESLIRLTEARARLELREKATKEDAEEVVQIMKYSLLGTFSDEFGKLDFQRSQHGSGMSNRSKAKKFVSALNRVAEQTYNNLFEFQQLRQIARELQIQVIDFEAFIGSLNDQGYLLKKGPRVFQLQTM
UniProt Q9UJA3: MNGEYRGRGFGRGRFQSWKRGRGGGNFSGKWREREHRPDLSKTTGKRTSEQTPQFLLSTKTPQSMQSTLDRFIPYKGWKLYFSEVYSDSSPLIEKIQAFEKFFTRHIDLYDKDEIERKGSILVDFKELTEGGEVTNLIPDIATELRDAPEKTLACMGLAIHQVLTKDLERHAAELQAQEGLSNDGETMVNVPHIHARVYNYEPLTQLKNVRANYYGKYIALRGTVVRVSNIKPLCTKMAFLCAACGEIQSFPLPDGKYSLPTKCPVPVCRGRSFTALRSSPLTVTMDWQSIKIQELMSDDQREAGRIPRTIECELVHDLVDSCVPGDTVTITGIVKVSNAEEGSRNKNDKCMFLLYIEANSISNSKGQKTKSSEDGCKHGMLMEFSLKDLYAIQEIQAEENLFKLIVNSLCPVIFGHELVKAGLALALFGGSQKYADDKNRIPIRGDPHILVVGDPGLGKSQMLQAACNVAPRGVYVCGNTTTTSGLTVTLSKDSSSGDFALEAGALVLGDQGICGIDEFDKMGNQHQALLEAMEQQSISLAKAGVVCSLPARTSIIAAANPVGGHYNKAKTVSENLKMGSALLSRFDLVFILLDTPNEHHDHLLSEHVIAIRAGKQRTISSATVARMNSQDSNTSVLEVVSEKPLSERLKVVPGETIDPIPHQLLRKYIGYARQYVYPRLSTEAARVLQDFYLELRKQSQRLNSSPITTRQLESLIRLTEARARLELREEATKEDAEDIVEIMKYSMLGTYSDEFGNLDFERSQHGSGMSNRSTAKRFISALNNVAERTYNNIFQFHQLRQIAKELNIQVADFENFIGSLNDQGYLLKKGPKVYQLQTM
UniProt O60934: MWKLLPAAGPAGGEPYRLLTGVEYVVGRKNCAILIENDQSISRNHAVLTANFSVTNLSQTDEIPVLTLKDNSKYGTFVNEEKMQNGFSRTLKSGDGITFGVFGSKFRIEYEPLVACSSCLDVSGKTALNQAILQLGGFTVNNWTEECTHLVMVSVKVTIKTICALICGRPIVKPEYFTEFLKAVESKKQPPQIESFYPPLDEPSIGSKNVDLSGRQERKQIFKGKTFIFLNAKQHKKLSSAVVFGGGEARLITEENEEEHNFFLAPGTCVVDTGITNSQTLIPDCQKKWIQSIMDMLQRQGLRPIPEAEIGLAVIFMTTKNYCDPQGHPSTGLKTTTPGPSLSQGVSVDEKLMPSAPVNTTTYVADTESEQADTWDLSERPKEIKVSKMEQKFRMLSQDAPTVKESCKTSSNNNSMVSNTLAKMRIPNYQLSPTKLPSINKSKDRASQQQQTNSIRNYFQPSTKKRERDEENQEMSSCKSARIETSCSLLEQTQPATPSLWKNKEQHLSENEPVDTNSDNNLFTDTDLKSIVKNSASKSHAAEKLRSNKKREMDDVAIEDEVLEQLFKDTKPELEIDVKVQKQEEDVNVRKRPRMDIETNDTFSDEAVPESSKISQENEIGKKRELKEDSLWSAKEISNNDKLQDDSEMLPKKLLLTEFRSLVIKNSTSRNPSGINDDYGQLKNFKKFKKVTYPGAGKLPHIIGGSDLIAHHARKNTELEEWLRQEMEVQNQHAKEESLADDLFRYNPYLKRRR

In experiment [1] the target is His-tagged Xenopus MCM9 wild type (Xenopus) (UniProt Q6NRM6). The experiment in a line: co-purification (Ni-NTA, heparin and Q columns) with silver stain and immunoblot; His-tagged Xenopus MCM8 and MCM9 (WT or WA) co-expressed in Sf9 cells and purified; purified preparation silver-stained and immunoblotted with anti-human MRE11 antibody. Background: A western blot detects proteins with antibodies after separation by electrophoresis.

For experiment [2], the target named is RAD50 (human (endogenous in HEK293T)) (UniProt Q92878). Put plainly: co-IP; endogenous MCM9 or RAD50 immunoprecipitated from HEK293T lysates (3 mg) with anti-MCM9 or anti-RAD50 antibody and protein G agarose, in the presence of EtBr (10 ug/ml); lysis buffer 20 mM Tris-HCl pH 7.5, 100 mM NaCl, 1% NP-40, 1 mM ATP; immunoblot.
The target in experiment [3] is MCM9 (human (endogenous in HEK293T)) (UniProt Q9NXL9). Described as above.

These are yes or no findings as the source states them, for the method shown. For some assays here: Binding seen in cells or lysates may run through a third protein. Some results given as binding are weak or reduced against the parent protein; the word gives no strength.

Consider “His-tagged Xenopus MCM8 (from UniProt Q5F310 1-831)”, for which the binding result in experiment [1] is “binds”.
In the case of MCM8 (from UniProt Q9UJA3 1-840), in experiment [2], the binding entry was “binds”.
On to MCM9 (from UniProt Q9NXL9 1-1143), for which the binding entry in experiment [2] is on record as “binds”.
With NBS1 (from UniProt O60934 1-754), the binding result in experiment [3] is recorded as “binds”.
For RAD50 (from UniProt Q92878 1-1312), the binding entry in experiment [3] is given as “binds”.
